Data taken from patent US6610685B2, “Fused indole derivatives” (Hoffmann-La Roche Inc., priority 2000, dated 2003).
At least one structure is not confirmed: it was looked up by name or label, or the drawing left a doubt.

Key:
[1] = Regulation of body weight and blood glucose (OGTT) in DIO rats; format: in vivo, Sprague-Dawley rats; details: 30 mg/kg per day as food admix
[2] = Pharmacodynamic study: food intake up to 16 hours after compound administration; format: in vivo; details: 30 mg/kg p.o., given up to 16 hours before food re-presentation; 23-hour food deprived rats
Method: The in vivo activity of compounds of formula (I) was assayed for ability to regulate feeding behaviour during a time period up to 16 hours after compound administration.
The test compound was assessed following acute administration. Each study utilised a between-subjects design (typically n=8) and compared the effects of a single dose of the test agent to those of vehicle.
Example 1 was administered at a dose of 30 mg/kg p.o. in a distilled water vehicle 2, 4, 8, or 16 hours prior to food presentation. At the time of food presentation (standard laboratory chow) all animals had been subjected to a 23-hour food deprivation period. Water was freely available throughout the study. The amount of food consumed over 1 hour was determined. Food intake data were subjected to two-way analysis of variance (ANOVA) with drug treatment as a between-subjects factor and injection-test-interval as a between subjects factor. Newman-Keuls tests were performed to assess whether differences between the vehicle mean and the drug-treated mean at each level of injection-test-interval were significant. All statistical analyses were performed using Statistica Software, Version 5.0 (Statsoft Inc.) and Microsoft Excel 7.0 (Microsoft Corp.).

[3] = Regulation of feeding behaviour: food consumption in food deprived animals; format: in vivo; details: 1 hours after a dose of 10 mg/kg p.o. to rats
[4] = Modulation of glucose measured during OGTT, acute and sub-chronic; format: in vivo, rats
[5] = literature; cited from earlier work
[6] = end of treatment, vs placebo-treated animals
[7] = sub-chronically 5 mg/kg twice daily (p.o.), vs same rats before treatment

With `CCOc1ccc2c(c1)c(C[C@H](C)N)c1n2CCC1` [Example 1, (S)-2-(6-ethoxy-2,3-dihydro-1H-3a-aza-cyclopenta[a]inden-8-yl)-1-methyl-ethylamine] the “BW (body weight)” value ([1]; 17 days treatment, DIO rats) was “significant reduction in BW”, the “mean fasting blood glucose measured during OGTT” value [1, 6] was “significantly decreased” and the “mean non-fasting blood glucose measured during OGTT” value [1, 6] was “significantly decreased”. The food intake [2] was “significant reduction in food intake”, the hypophagia [3] was “maintained significant hypophagia” and the “glucose utilization following oral glucose challenge” value ([4]; given acutely at 3 and 10 mg/kg (p.o.), vs placebo-treated rats) was “significantly improves glucose utilization”. The blood parameters ([4]; sub-chronically 5 mg/kg twice daily (p.o.), vs placebo-treated animals at end of treatment) was “significantly improved”, the fasting blood glucose [4, 7] was “significantly improves” and the “glucose concentration measured during OGTT” value [4, 7] was “significantly improves”.
In the case of `FC(F)(F)c1cccc(N2CCNCC2)c1` [TFMPP, trifluoromethylphenylpiperazine], the behavioural satiety sequence [5] is listed as “accelerate the appearance of the behavioural satiety sequence” and the “food intake in rats” value [5] is listed as “reduce food intake”.
